# Measured values published in the supplement of paper PMC8728848.
# Some of the results follow.
# B1: OS9 (Arabidopsis thaliana) (protein)
# chain: MRGSHHHHHHGMASMTGGQQMGRDLYDDDDKSRLQIFPAHLVGTFSRNNREPKYKIEFLPEDSPFHPGDNLESMVMLDKHGNRFLCYLPKEEKATSGWTSSQQNISTVMMETQQLVKLKTPDELLQPLSEKCLFRQEGWWSYEFCHQKYVRQLHVEDENKIVQEFFLGTFDPEATAAFNQTVSDASTDASQRYHSHVYTNGTTCDLTGSPAEVEVRFVCAETRAMVTSITELSTCKYALTVQCPTLCKHPLFQLEKPVSHTIHCNAIPVEEDATRNKEEQAVDESPKMIADS
# How the values were obtained:
# Experiment in all cases: glycan array binding signal (z-score within array); higher = stronger binding
# Conditions in all cases: glycan notation: IUPAC condensed, linker removed; mutation: R201A
# [1] = target: Neu5Ac(a2-6)Gal(b1-4)GlcNAc(b1-2)Man(a1-3)[Man(a1-6)]Man(b1-4)GlcNAc(b1-4)GlcNAc
# Procedure, shortened: (§1)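 From the Consortium for Functional Glycomics database, 3228 arrays were curated, keeping only those whose protein sequence was available. Binding is given as a within-array Z-score averaged across arrays sharing a protein sequence and across linkers. Negative Z-scores can be read as non-binding.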
# [2] = target: Neu5Ac(a2-6)Gal(b1-4)GlcNAc(b1-2)Man(a1-3)[Neu5Ac(a2-3)Gal(b1-4)GlcNAc(b1-2)Man(a1-6)]Man(b1-4)GlcNAc(b1-4)GlcNAc
# Procedure, shortened: as §1
# [3] = target: Neu5Ac(a2-6)Gal(b1-4)GlcNAc(b1-2)Man(a1-3)[Neu5Ac(a2-6)Gal(b1-4)GlcNAc(b1-2)Man(a1-6)]Man(b1-4)GlcNAc(b1-4)GlcNAc
# Procedure, shortened: as §1
# [4] = target: Neu5Ac(a2-6)Gal(b1-4)GlcNAc(b1-2)Man(a1-3)[Neu5Ac(a2-6)Gal(b1-4)GlcNAc(b1-2)Man(a1-6)]Man(b1-4)GlcNAc(b1-4)[Fuc(a1-6)]GlcNAc
# Procedure, shortened: as §1
# [5] = target: Neu5Ac(a2-6)Gal(b1-4)GlcNAc(b1-2)Man(a1-6)Man(b1-4)GlcNAc(b1-4)GlcNAc
# Procedure, shortened: as §1
# [6] = target: Neu5Ac(a2-6)Gal(b1-4)GlcNAc(b1-2)Man(a1-6)[Gal(b1-4)GlcNAc(b1-2)Man(a1-3)]Man(b1-4)GlcNAc(b1-4)GlcNAc
# Procedure, shortened: as §1
# [7] = target: Neu5Ac(a2-6)Gal(b1-4)GlcNAc(b1-2)Man(a1-6)[GlcNAc(b1-2)Man(a1-3)]Man(b1-4)GlcNAc(b1-4)GlcNAc
# Procedure, shortened: as §1
# [8] = target: Neu5Ac(a2-6)Gal(b1-4)GlcNAc(b1-2)Man(a1-6)[Man(a1-3)]Man(b1-4)GlcNAc(b1-4)GlcNAc
# Procedure, shortened: as §1
# [9] = target: Neu5Ac(a2-6)Gal(b1-4)GlcNAc(b1-2)[Neu5Ac(a2-6)Gal(b1-4)GlcNAc(b1-4)]Man(a1-3)[GlcNAc(b1-4)][Neu5Ac(a2-6)Gal(b1-4)GlcNAc(b1-2)[Neu5Ac(a2-6)Gal(b1-4)GlcNAc(b1-6)]Man(a1-6)]Man(b1-4)GlcNAc(b1-4)GlcNAc
# Procedure, shortened: as §1
# [10] = target: Neu5Ac(a2-6)Gal(b1-4)GlcNAc(b1-2)[Neu5Ac(a2-6)Gal(b1-4)GlcNAc(b1-4)]Man(a1-3)[GlcNAc(b1-4)][Neu5Ac(a2-6)Gal(b1-4)GlcNAc(b1-4)Man(a1-6)]Man(b1-4)GlcNAc(b1-4)GlcNAc
# Procedure, shortened: as §1
# [11] = target: Neu5Ac(a2-6)Gal(b1-4)GlcNAc(b1-2)[Neu5Ac(a2-6)Gal(b1-4)GlcNAc(b1-6)]Man(a1-6)[Neu5Ac(a2-6)Gal(b1-4)GlcNAc(b1-2)Man(a1-3)][GlcNAc(b1-4)]Man(b1-4)GlcNAc(b1-4)GlcNAc
# Procedure, shortened: as §1
# [12] = target: Neu5Ac(a2-6)Gal(b1-4)GlcNAc(b1-3)Gal(b1-3)GlcNAc
# Procedure, shortened: as §1
# [13] = target: Neu5Ac(a2-6)Gal(b1-4)GlcNAc(b1-3)Gal(b1-4)GlcNAc
# Procedure, shortened: as §1
# [14] = target: Neu5Ac(a2-6)Gal(b1-4)GlcNAc(b1-3)Gal(b1-4)GlcNAc(b1-2)Man(a1-3)[Neu5Ac(a2-6)Gal(b1-4)GlcNAc(b1-3)Gal(b1-4)GlcNAc(b1-2)Man(a1-6)]GalNAc
# Procedure, shortened: as §1
# [15] = target: Neu5Ac(a2-6)Gal(b1-4)GlcNAc(b1-3)Gal(b1-4)GlcNAc(b1-3)Gal(b1-4)GlcNAc
# Procedure, shortened: as §1
# [16] = target: Neu5Ac(a2-6)Gal(b1-4)GlcNAc(b1-3)Gal(b1-4)GlcNAc(b1-3)Gal(b1-4)GlcNAc(b1-2)Man(a1-3)[Neu5Ac(a2-6)Gal(b1-4)GlcNAc(b1-3)Gal(b1-4)GlcNAc(b1-3)Gal(b1-4)GlcNAc(b1-2)Man(a1-6)]GalNAc
# Procedure, shortened: as §1
# [17] = target: Neu5Ac(a2-6)Gal(b1-4)GlcNAc(b1-3)Gal(b1-4)GlcNAc(b1-3)GalNAc
# Procedure, shortened: as §1
# [18] = target: Neu5Ac(a2-6)Gal(b1-4)GlcNAc(b1-3)Gal(b1-4)GlcNAc(b1-3)[Neu5Ac(a2-6)Gal(b1-4)GlcNAc(b1-3)Gal(b1-4)GlcNAc(b1-6)]GalNAc
# Procedure, shortened: as §1
# [19] = target: Neu5Ac(a2-6)Gal(b1-4)GlcNAc(b1-3)Gal(b1-4)GlcNAc(b1-6)[Gal(b1-3)]GalNAc
# Procedure, shortened: as §1
# [20] = target: Neu5Ac(a2-6)Gal(b1-4)GlcNAc(b1-3)Gal(b1-4)[Fuc(a1-3)]GlcNAc(b1-3)Gal(b1-4)[Fuc(a1-3)]GlcNAc
# Procedure, shortened: as §1
# [21] = target: Neu5Ac(a2-6)Gal(b1-4)GlcNAc(b1-3)GalNAc
# Procedure, shortened: as §1
# [22] = target: Neu5Ac(a2-6)Gal(b1-4)GlcNAc(b1-3)[Neu5Ac(a2-6)Gal(b1-4)GlcNAc(b1-6)]GalNAc
# Procedure, shortened: as §1
# [23] = target: Neu5Ac(a2-6)Gal(b1-4)GlcNAc(b1-6)GalNAc
# Procedure, shortened: as §1
# [24] = target: Neu5Ac(a2-6)Gal(b1-4)GlcNAc(b1-6)[Gal(b1-3)GlcNAc(b1-3)]Gal(b1-4)Glc
# Procedure, shortened: as §1
# [25] = target: Neu5Ac(a2-6)Gal(b1-4)GlcNAc(b1-6)[Gal(b1-3)]GalNAc
# Procedure, shortened: as §1
# [26] = target: Neu5Ac(a2-6)Gal(b1-4)GlcNAc6S
# Procedure, shortened: as §1
# Neu5Ac(a2-6)GalNAc = target: Neu5Ac(a2-6)GalNAc
# Procedure, shortened: as §1
# [27] = target: Neu5Ac(a2-6)GalNAc(b1-4)GlcNAc
# Procedure, shortened: as §1
# [28] = target: Neu5Ac(a2-6)GalNAc(b1-4)GlcNAc6S
# Procedure, shortened: as §1
# [29] = target: Neu5Ac(a2-6)GlcNAc(b1-4)GlcNAc
# Procedure, shortened: as §1
# [30] = target: Neu5Ac(a2-6)GlcNAc(b1-4)GlcNAc(b1-4)GlcNAc
# Procedure, shortened: as §1
binder,measurement,setting,value
B1,glycan array binding signal (z-score),[1],-1.06
same,glycan array binding signal (z-score),[2],1.46
same,glycan array binding signal (z-score),[3],0.37
same,glycan array binding signal (z-score),[4],-0.474
same,glycan array binding signal (z-score),[5],-0.225
same,glycan array binding signal (z-score),[6],-0.323
same,glycan array binding signal (z-score),[7],-0.588
same,glycan array binding signal (z-score),[8],0.291
same,glycan array binding signal (z-score),[9],-0.834
same,glycan array binding signal (z-score),[10],0.408
same,glycan array binding signal (z-score),[11],-0.945
same,glycan array binding signal (z-score),[12],-0.109
same,glycan array binding signal (z-score),[13],-0.514
same,glycan array binding signal (z-score),[14],1.5
same,glycan array binding signal (z-score),[15],-0.58
same,glycan array binding signal (z-score),[16],-0.56
same,glycan array binding signal (z-score),[17],0.709
same,glycan array binding signal (z-score),[18],-0.858
same,glycan array binding signal (z-score),[19],1.03
same,glycan array binding signal (z-score),[20],-0.341
same,glycan array binding signal (z-score),[21],-0.858
same,glycan array binding signal (z-score),[22],0.097
same,glycan array binding signal (z-score),[23],0.465
same,glycan array binding signal (z-score),[24],-0.933
same,glycan array binding signal (z-score),[25],-0.582
same,glycan array binding signal (z-score),[26],0.336
same,glycan array binding signal (z-score),Neu5Ac(a2-6)GalNAc,-0.021
same,glycan array binding signal (z-score),[27],-0.088
same,glycan array binding signal (z-score),[28],-0.349
same,glycan array binding signal (z-score),[29],-0.223
same,glycan array binding signal (z-score),[30],-0.726

# 2 consecutive entries already listed, for reference:
binder,measurement,setting,value
B1,glycan array binding signal (z-score),Neu5Ac(a2-6)GalNAc,-0.021
same,glycan array binding signal (z-score),[27],-0.088
